# Values quoted from earlier work, collected in US20050163873A1, “Methods and formulations for treating glaucoma” (priority 2004, published 2005).
# “Also recorded” adds a separate entry of the source. At least one structure is not confirmed: it was looked up by name or label, or the drawing left a doubt.
# Tested on: retina
# Conditions: oral / dietary supplementation
compound,measurement,value
"CC/C=C\C/C=C\C/C=C\C/C=C\C/C=C\C/C=C\CCC(=O)O [DHA, docosahexaenoic acid]",retinal neurotoxicity/degeneration induced by kainic acid,partially counteract; also recorded: protected
